Test results: PMC10920703
These are yes or no findings as the source states them, for the method shown. For part of these data: Binding seen in cells or lysates may run through a third protein. Some binding calls cover weakened binding; strength is not graded here.

Amino acid sequences for entries named in this document (tags omitted). A change or cut given only in a name is not applied to a line headed by its entry. Chains listed by the source or under a name are the forms on record and can include a tag or linker.
UniProt Q96PZ2: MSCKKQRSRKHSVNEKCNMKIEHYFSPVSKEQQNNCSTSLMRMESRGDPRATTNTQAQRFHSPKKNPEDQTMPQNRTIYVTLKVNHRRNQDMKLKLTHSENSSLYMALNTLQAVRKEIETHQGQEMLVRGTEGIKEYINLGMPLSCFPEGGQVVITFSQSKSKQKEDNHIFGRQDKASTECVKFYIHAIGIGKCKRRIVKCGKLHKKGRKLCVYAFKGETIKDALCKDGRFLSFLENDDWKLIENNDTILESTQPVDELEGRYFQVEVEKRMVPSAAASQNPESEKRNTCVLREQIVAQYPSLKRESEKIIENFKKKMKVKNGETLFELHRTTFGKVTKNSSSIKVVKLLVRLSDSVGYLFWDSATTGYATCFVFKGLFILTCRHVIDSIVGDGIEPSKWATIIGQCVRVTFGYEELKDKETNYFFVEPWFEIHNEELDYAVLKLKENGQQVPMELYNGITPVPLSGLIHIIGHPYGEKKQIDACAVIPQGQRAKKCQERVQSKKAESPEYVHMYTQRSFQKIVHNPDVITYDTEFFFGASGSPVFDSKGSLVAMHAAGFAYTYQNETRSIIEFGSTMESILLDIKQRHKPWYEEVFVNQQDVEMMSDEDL
FAM111A SPD T563P (Q96PZ2, form named): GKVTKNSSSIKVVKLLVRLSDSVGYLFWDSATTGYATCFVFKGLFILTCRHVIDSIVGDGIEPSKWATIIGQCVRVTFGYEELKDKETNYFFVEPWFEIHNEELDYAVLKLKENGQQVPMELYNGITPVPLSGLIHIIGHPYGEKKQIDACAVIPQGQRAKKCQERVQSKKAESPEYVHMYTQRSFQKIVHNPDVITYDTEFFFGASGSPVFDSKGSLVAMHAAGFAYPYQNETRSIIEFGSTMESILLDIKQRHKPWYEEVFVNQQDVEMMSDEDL
FAM111A SPD V347D (Q96PZ2, form named): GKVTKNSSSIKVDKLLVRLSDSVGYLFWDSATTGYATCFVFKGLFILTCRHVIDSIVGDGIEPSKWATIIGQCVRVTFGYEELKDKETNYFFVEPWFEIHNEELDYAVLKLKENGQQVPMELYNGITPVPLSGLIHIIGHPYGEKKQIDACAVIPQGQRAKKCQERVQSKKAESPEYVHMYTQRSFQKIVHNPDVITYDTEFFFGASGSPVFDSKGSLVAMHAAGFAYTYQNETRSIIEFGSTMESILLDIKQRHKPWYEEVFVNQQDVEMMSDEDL

Assays:
[1] = target: FAM111A SPD T563P (human) (UniProt Q96PZ2); assay: SEC; Superdex 200 Increase 10/300 GL, MS300 buffer (20 mM Tris pH 7.5, 300 mM NaCl, 0.5 mM TCEP), 100 μL of 1 mg/mL SPD protein (32 μM); both purified
[2] = target: FAM111A SPD V347D (human) (UniProt Q96PZ2); assay: as above
[3] = target: full-length FAM111A with a C-terminal Flag or HA tag (human) (UniProt Q96PZ2); assay: co-IP; anti-Flag M2 Affinity Gel on lysates (2 mg protein) in NP-40 lysis buffer (50 mM Tris-HCl pH 7.4, 150 mM NaCl, 0.1% NP-40), blots with anti-Flag and anti-HA

In the case of “FAM111A SPD T563P (from UniProt Q96PZ2 335-611) (domain or fragment)”, the binding [1] is reported as “binds”.
For “FAM111A SPD V347D (from UniProt Q96PZ2 335-611) (domain or fragment)”, the binding [2] was “no binding (tested: 32 μM)”.
With “full-length FAM111A with a C-terminal Flag or HA tag (from UniProt Q96PZ2 1-611)” the binding [3] was “binds”.
